Measured values taken from US20250222065A1, “CYCLIC POLYPEPTIDE FOR THE TREATMENT OF PHA TYPE 1B” (priority 2015, published 2025).
At least one compound was matched to its structure with a doubt left.

Target: T1, αC133Yβγ hENaC (Homo sapiens, UniProt P37088+P51168+P51170, C133Y)
T1 construct: expressed in transfected cells; host or cells: HEK-293
T1 sequence (P37088 1-669 C133Y): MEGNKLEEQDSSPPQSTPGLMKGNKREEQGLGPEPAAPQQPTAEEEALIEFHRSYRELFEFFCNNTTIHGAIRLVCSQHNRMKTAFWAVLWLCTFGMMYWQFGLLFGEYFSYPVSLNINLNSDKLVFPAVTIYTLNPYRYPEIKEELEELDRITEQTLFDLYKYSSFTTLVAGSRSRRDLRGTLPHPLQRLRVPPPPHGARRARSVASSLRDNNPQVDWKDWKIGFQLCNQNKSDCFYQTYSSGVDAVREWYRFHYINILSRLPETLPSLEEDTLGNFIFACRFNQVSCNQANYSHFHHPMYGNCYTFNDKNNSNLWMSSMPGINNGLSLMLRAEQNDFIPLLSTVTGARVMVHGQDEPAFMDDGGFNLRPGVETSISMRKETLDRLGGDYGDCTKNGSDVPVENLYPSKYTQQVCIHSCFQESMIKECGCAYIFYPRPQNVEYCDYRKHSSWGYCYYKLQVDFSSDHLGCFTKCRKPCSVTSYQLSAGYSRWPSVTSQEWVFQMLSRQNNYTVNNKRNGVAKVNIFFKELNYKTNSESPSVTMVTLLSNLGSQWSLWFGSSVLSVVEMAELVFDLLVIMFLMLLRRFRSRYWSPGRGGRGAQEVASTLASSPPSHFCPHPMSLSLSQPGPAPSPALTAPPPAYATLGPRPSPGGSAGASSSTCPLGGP
T1 sequence (P51168 1-640): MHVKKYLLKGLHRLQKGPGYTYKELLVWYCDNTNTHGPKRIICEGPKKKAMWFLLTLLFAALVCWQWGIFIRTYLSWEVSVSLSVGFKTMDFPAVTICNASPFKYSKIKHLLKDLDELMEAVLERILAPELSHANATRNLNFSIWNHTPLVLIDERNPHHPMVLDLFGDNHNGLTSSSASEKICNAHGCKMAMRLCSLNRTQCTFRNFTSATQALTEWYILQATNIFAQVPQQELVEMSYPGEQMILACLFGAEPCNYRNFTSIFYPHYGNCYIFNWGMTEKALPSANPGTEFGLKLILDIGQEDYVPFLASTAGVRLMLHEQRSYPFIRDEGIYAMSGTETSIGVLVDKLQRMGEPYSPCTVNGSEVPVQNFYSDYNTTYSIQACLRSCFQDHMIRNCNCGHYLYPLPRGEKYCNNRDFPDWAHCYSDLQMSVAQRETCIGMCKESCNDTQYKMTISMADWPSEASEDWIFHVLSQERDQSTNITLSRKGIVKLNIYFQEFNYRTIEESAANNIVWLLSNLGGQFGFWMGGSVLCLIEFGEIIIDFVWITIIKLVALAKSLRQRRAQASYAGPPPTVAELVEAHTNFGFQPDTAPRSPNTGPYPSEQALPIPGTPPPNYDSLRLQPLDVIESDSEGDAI
T1 sequence (P51170 1-649): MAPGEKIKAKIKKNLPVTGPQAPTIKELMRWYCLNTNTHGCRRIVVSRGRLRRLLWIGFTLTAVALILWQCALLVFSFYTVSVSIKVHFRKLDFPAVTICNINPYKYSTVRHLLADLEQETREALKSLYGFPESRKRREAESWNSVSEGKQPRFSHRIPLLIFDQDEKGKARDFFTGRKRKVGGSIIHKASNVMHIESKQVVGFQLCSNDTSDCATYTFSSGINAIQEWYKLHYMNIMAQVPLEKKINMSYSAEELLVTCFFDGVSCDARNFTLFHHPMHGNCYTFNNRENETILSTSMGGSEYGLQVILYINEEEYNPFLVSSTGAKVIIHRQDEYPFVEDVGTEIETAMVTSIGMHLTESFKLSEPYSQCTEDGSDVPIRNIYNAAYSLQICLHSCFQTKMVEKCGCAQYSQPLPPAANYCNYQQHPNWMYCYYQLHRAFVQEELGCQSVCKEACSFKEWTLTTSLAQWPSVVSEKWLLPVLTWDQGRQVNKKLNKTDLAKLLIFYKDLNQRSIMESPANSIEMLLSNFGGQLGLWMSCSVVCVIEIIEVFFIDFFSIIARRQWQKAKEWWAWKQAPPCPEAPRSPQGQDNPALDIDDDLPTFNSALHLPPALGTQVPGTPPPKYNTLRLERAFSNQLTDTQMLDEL
Assay: Whole cell patch clamp, HEK-293 cells expressing PHA type IB mutant αC133Yβγ-hENaC
Format: cell-based
Conditions: HEK-293, whole cell patch clamp; no-peptide current: loss-of-function

C[C@@H]1NC(=O)CNC(=O)[C@H](CCC(=O)O)NC(=O)[C@@H]2CCCN2C(=O)[C@H]([C@@H](C)O)NC(=O)[C@H](CCC(=O)O)NC(=O)[C@H](CCCNC(=N)N)NC(=O)[C@H](CCC(N)=O)NC(=O)CNC(=O)[C@@H](N)CSSC[C@@H](C(=O)O)NC(=O)[C@H](Cc2ccc(O)cc2)NC(=O)[C@H](Cc2c[nH]c3ccccc23)NC(=O)[C@@H]2CCCN2C(=O)[C@H](CCCCN)NC(=O)[C@H](C)NC(=O)[C@H](CCC(=O)O)NC1=O [AP301]
AP301 restored Na+ current: 111.8 ± 10.6 pA
